{
  "source": "the supplement of paper PMC4604168 (melanoma cell lines)",
  "note": "The other results are listed elsewhere or left out. Single values are uncertain, as repeats are few or missing.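 The apoptosis fraction was the count of cleaved-PARP antibody-stained nuclei relative to all DNA-stained nuclei, imaged in 1,536-well plates. Screening doses were set so most cells survived, and baseline and induced cleaved-PARP levels vary greatly across cell lines.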",
  "data": [
    {"test_system": "SkMel5", "experiment": "cleaved PARP positive nuclei fraction relative to DMSO control; higher = more apoptosis", "details": "library dose: low library concentration; 72 h", "units": {"cleaved PARP positive nuclei fraction": "%"}, "values": [
      {"smiles": "C[As](C)SC[C@H](NC(=O)CC[C@H](N)C(=O)O)C(=O)NCC(=O)O", "note": "[Darinaparsin] + COc1ccc(COc2ccc(Cc3cnc(N)nc3N)cc2OC)cc1 [GW2580] (first compound 0.4 µM, partner dose 1 µM)", "cleaved PARP positive nuclei fraction": 60.8},
      {"smiles": "C[C@]12O[C@H](C[C@]1(O)CO)n1c3ccccc3c3c4c(c5c6ccccc6n2c5c31)CNC4=O", "note": "[Lestaurtinib] + COc1ccc(-c2ccc3c(N4CCOCC4)nc(N4C[C@@H](C)O[C@@H](C)C4)nc3n2)cc1CO [KU0063794] (first compound 0.004 µM, partner dose 0.02 µM)", "cleaved PARP positive nuclei fraction": 67.1},
      {"smiles": "O=S(=O)(c1ccccc1)N(CC(F)(F)F)c1ccc(C(O)(C(F)(F)F)C(F)(F)F)cc1", "note": "+ Cc1cc(SCc2sc(-c3ccc(C(F)(F)F)c(F)c3)nc2C)ccc1OCC(=O)O [GW0742] (first compound 1.4 µM, partner dose 2 µM)", "cleaved PARP positive nuclei fraction": 137},
      {"smiles": "COc1ccc(COc2ccc(Cc3cnc(N)nc3N)cc2OC)cc1", "note": "+ Cc1cc(SCc2sc(-c3ccc(C(F)(F)F)c(F)c3)nc2C)ccc1OCC(=O)O [GW0742] (first compound 1 µM, partner dose 2 µM)", "cleaved PARP positive nuclei fraction": 62},
      {"smiles": "C[As](C)SC[C@H](NC(=O)CC[C@H](N)C(=O)O)C(=O)NCC(=O)O", "note": "[Darinaparsin] + CCc1ccc(CCOc2ccc(CC3SC(=O)NC3=O)cc2)nc1 [pioglitazone] (first compound 0.4 µM, partner dose 2 µM)", "cleaved PARP positive nuclei fraction": 84},
      {"smiles": "O=C(Oc1ccc([N+](=O)[O-])cc1)N1CCC(C(O)(c2ccc3c(c2)OCO3)c2ccc3c(c2)OCO3)CC1", "note": "+ CC(C)CCN1c2nc(Nc3cc(F)c(O)c(F)c3)ncc2N(C)C(=O)C1C [BID1870] (first compound 1 µM, partner dose 0.2 µM)", "cleaved PARP positive nuclei fraction": 63.3},
      {"smiles": "CO[C@H]1C[C@@H]2CC[C@@H](C)[C@@](O)(O2)C(=O)C(=O)N2CCCC[C@H]2C(=O)O[C@H]([C@H](C)C[C@@H]2CC[C@@H](OCCO)[C@H](OC)C2)CC(=O)[C@H](C)/C=C(\\C)[C@@H](O)[C@@H](OC)C(=O)[C@H](C)C[C@H](C)/C=C/C=C/C=C/1C", "note": "[everolimus] + Cc1cc(SCc2sc(-c3ccc(C(F)(F)F)c(F)c3)nc2C)ccc1OCC(=O)O [GW0742] (first compound 0.02 µM, partner dose 2 µM)", "cleaved PARP positive nuclei fraction": 150},
      {"smiles": "COc1cc(Nc2ncc(F)c(Nc3ccc4c(n3)NC(=O)C(C)(C)O4)n2)cc(OC)c1OC", "note": "[Tamatinib] + O=C(Oc1ccc([N+](=O)[O-])cc1)N1CCC(C(O)(c2ccc3c(c2)OCO3)c2ccc3c(c2)OCO3)CC1 [JZL184] (first compound 0.4 µM, partner dose 1 µM)", "cleaved PARP positive nuclei fraction": 32.4},
      {"smiles": "COc1cc2ncnc(Nc3ccc(Oc4ccccc4)cc3)c2cc1OC", "note": "+ O=C(Oc1ccc([N+](=O)[O-])cc1)N1CCC(C(O)(c2ccc3c(c2)OCO3)c2ccc3c(c2)OCO3)CC1 [JZL184] (first compound 2 µM, partner dose 1 µM)", "cleaved PARP positive nuclei fraction": 179},
      {"smiles": "C/C(O)=C(\\C#N)C(=O)Nc1cc(Br)ccc1Br", "note": "+ O=C(Oc1ccc([N+](=O)[O-])cc1)N1CCC(C(O)(c2ccc3c(c2)OCO3)c2ccc3c(c2)OCO3)CC1 [JZL184] (first compound 2 µM, partner dose 1 µM)", "cleaved PARP positive nuclei fraction": 101},
      {"smiles": "C/C(O)=C(\\C#N)C(=O)Nc1cc(Br)ccc1Br", "note": "+ CC(C)CCN1c2nc(Nc3cc(F)c(O)c(F)c3)ncc2N(C)C(=O)C1C [BID1870] (first compound 2 µM, partner dose 0.2 µM)", "cleaved PARP positive nuclei fraction": 152},
      {"smiles": "N#Cc1c(O)c2c(-c3ccc(-c4ccccc4O)cc3)csc2[nH]c1=O", "note": "+ C/C(O)=C(\\C#N)C(=O)Nc1cc(Br)ccc1Br [LFM-A13] (first compound 2 µM, partner dose 2 µM)", "cleaved PARP positive nuclei fraction": 66.4},
      {"smiles": "C[C@]12O[C@H](C[C@]1(O)CO)n1c3ccccc3c3c4c(c5c6ccccc6n2c5c31)CNC4=O", "note": "[Lestaurtinib] + C[C@@H]1CCN(C(=O)CC#N)C[C@@H]1N(C)c1ncnc2[nH]ccc12 [CP690550] (first compound 0.004 µM, partner dose 1 µM)", "cleaved PARP positive nuclei fraction": 138},
      {"smiles": "Cc1ccc(NC(=O)c2cccc(N(C)C)c2)cc1NC(=O)c1ccc(O)cc1", "note": "+ C/C(O)=C(\\C#N)C(=O)Nc1cc(Br)ccc1Br [LFM-A13] (first compound 2 µM, partner dose 2 µM)", "cleaved PARP positive nuclei fraction": 60.8}
    ]},
    {"test_system": "UACC257", "experiment": "cleaved PARP positive nuclei fraction relative to DMSO control; melanoma cells; higher = more apoptosis", "details": "library dose: low library concentration; 72 h", "units": {"cleaved PARP positive nuclei fraction": "%"}, "values": [
      {"smiles": "C[C@]12O[C@H](C[C@]1(O)CO)n1c3ccccc3c3c4c(c5c6ccccc6n2c5c31)CNC4=O", "note": "[Lestaurtinib] + CCN(CC)CCCCNc1ncc2cc(-c3cc(OC)cc(OC)c3)c(NC(=O)NC(C)(C)C)nc2n1 [PD173074] (first compound 0.004 µM, partner dose 0.1 µM)", "cleaved PARP positive nuclei fraction": 289},
      {"smiles": "N#Cc1c(O)c2c(-c3ccc(-c4ccccc4O)cc3)csc2[nH]c1=O", "note": "+ O=C(Oc1ccc([N+](=O)[O-])cc1)N1CCC(C(O)(c2ccc3c(c2)OCO3)c2ccc3c(c2)OCO3)CC1 [JZL184] (first compound 2 µM, partner dose 1 µM)", "cleaved PARP positive nuclei fraction": 131},
      {"smiles": "C[C@]12O[C@H](C[C@]1(O)CO)n1c3ccccc3c3c4c(c5c6ccccc6n2c5c31)CNC4=O", "note": "[Lestaurtinib] + O=c1cc(-c2cccc3c2Sc2ccccc2S3)oc(N2CCOCC2)c1 [KU55933] (first compound 0.004 µM, partner dose 1 µM)", "cleaved PARP positive nuclei fraction": 122},
      {"smiles": "CCc1ccc(CCOc2ccc(CC3SC(=O)NC3=O)cc2)nc1", "note": "(stereo not given) [pioglitazone] + O=C(Oc1ccc([N+](=O)[O-])cc1)N1CCC(C(O)(c2ccc3c(c2)OCO3)c2ccc3c(c2)OCO3)CC1 [JZL184] (first compound 2 µM, partner dose 1 µM)", "cleaved PARP positive nuclei fraction": 70.3},
      {"smiles": "COc1cc2c(Oc3ccc4[nH]c(C)cc4c3F)ncnc2cc1OCCCN1CCCC1", "note": "[cediranib] + Cc1cc(SCc2sc(-c3ccc(C(F)(F)F)c(F)c3)nc2C)ccc1OCC(=O)O [GW0742] (first compound 0.4 µM, partner dose 2 µM)", "cleaved PARP positive nuclei fraction": 151},
      {"smiles": "Cc1cc(SCc2sc(-c3ccc(C(F)(F)F)c(F)c3)nc2C)ccc1OCC(=O)O", "note": "+ O=C(Oc1ccc([N+](=O)[O-])cc1)N1CCC(C(O)(c2ccc3c(c2)OCO3)c2ccc3c(c2)OCO3)CC1 [JZL184] (first compound 2 µM, partner dose 1 µM)", "cleaved PARP positive nuclei fraction": 26.4},
      {"smiles": "Cc1cc(SCc2sc(-c3ccc(C(F)(F)F)c(F)c3)nc2C)ccc1OCC(=O)O", "note": "+ COc1cc(N2CCC(N3CCN(C)CC3)CC2)ccc1Nc1ncc(Cl)c(Nc2ccccc2S(=O)(=O)C(C)C)n1 [NVP-TAE684] (first compound 2 µM, partner dose 0.08 µM)", "cleaved PARP positive nuclei fraction": 117},
      {"smiles": "C[C@]12O[C@H](C[C@]1(O)CO)n1c3ccccc3c3c4c(c5c6ccccc6n2c5c31)CNC4=O", "note": "[Lestaurtinib] + COC(=O)c1sccc1S(=O)(=O)Nc1ccc(Nc2ccccc2)cc1OC [GSK0660] (first compound 0.004 µM, partner dose 1 µM)", "cleaved PARP positive nuclei fraction": 83.2},
      {"smiles": "C[C@]12O[C@H](C[C@]1(O)CO)n1c3ccccc3c3c4c(c5c6ccccc6n2c5c31)CNC4=O", "note": "[Lestaurtinib] + CC1(C)NC(=O)N(c2ccc([N+](=O)[O-])c(C(F)(F)F)c2)C1=O [nilutamide] (first compound 0.004 µM, partner dose 1 µM)", "cleaved PARP positive nuclei fraction": 149},
      {"smiles": "O=C1NC(=O)/C(=C/c2ccc(-c3ccc(F)cc3O)o2)S1", "note": "+ O=C(Oc1ccc([N+](=O)[O-])cc1)N1CCC(C(O)(c2ccc3c(c2)OCO3)c2ccc3c(c2)OCO3)CC1 [JZL184] (first compound 1 µM, partner dose 1 µM)", "cleaved PARP positive nuclei fraction": 239},
      {"smiles": "Oc1cc(-c2nc(-c3ccccc3)[nH]c2-c2ccncc2)ccc1Cl", "note": "+ O=C(Oc1ccc([N+](=O)[O-])cc1)N1CCC(C(O)(c2ccc3c(c2)OCO3)c2ccc3c(c2)OCO3)CC1 [JZL184] (first compound 0.2 µM, partner dose 1 µM)", "cleaved PARP positive nuclei fraction": 92.2},
      {"smiles": "C[C@]12O[C@H](C[C@]1(O)CO)n1c3ccccc3c3c4c(c5c6ccccc6n2c5c31)CNC4=O", "note": "[Lestaurtinib] + O=S(=O)(c1ccccc1)N(CC(F)(F)F)c1ccc(C(O)(C(F)(F)F)C(F)(F)F)cc1 [T0901317] (first compound 0.004 µM, partner dose 1.4 µM)", "cleaved PARP positive nuclei fraction": 82.1},
      {"smiles": "NCC(=O)Nc1ccc(-n2nc(C(F)(F)F)cc2-c2ccc3c(ccc4ccccc43)c2)cc1", "note": "+ O=C(Oc1ccc([N+](=O)[O-])cc1)N1CCC(C(O)(c2ccc3c(c2)OCO3)c2ccc3c(c2)OCO3)CC1 [JZL184] (first compound 1 µM, partner dose 1 µM)", "cleaved PARP positive nuclei fraction": 48.7},
      {"smiles": "C[C@@H]1CCN(C(=O)CC#N)C[C@@H]1N(C)c1ncnc2[nH]ccc12", "note": "+ C/C(O)=C(\\C#N)C(=O)Nc1cc(Br)ccc1Br [LFM-A13] (first compound 1 µM, partner dose 2 µM)", "cleaved PARP positive nuclei fraction": 183},
      {"smiles": "C[As](C)SC[C@H](NC(=O)CC[C@H](N)C(=O)O)C(=O)NCC(=O)O", "note": "[Darinaparsin] + O=C(Nc1ccccc1)c1cc([N+](=O)[O-])ccc1Cl [GW9662] (first compound 0.4 µM, partner dose 2 µM)", "cleaved PARP positive nuclei fraction": 103},
      {"smiles": "C[C@]12O[C@H](C[C@]1(O)CO)n1c3ccccc3c3c4c(c5c6ccccc6n2c5c31)CNC4=O", "note": "[Lestaurtinib] + O=C(O)c1ccc(-c2c[nH]c3ncc(-c4ccccc4)cc23)cc1C1CCCC1 [GSK650394] (first compound 0.004 µM, partner dose 0.16 µM)", "cleaved PARP positive nuclei fraction": 63.8}
    ]}
  ]
}
